Measured values taken from patent publication US7947715B2, “Isoxazoline compound and pesticide” (Nissan Chemical Industries, Ltd., priority 2006, dated 2011).
Some entries share one result that the patent states for a list of compounds. For at least one compound, name, drawing or mass did not settle the structure.

System: cabbage moth (Plutella xylostella)
Test: Insecticidal test against cabbage moth (leaf dip)
Type: in vivo
Conditions: second instar larva, after 6 days

Compound | insecticidal rate (rate of dead insects) (100 ppm (*)) | insecticidal rate (rate of dead insects) (10 ppm (**)) | further results
O=C(NCc1ccc(C2=NOC(c3cc(Cl)cc(Cl)c3)(C(F)(F)F)C2)cc1)c1ccsc1 (stereo not shown) [1-029] | ≥ 80% |  | 
Cn1nc(Cl)cc1C(=O)NCc1ccc(C2=NOC(c3cc(Cl)cc(Cl)c3)(C(F)(F)F)C2)cc1 (stereo not shown) [1-031] |  |  | insecticidal rate (rate of dead insects) (500 ppm): ≥ 80%
O=C(NCc1ccc(C2=NOC(c3cc(Cl)cc(Cl)c3)(C(F)(F)F)C2)cc1)c1cccnc1Cl (stereo not shown) [1-032] | ≥ 80% |  | 
CCCC(=O)NC(C)c1ccc(C2=NOC(c3cc(Cl)cc(Cl)c3)(C(F)(F)F)C2)cc1 (stereo not shown) [1-053] | ≥ 80% |  | 
CCC(=O)NCc1ccc(C2=NOC(c3cc(Cl)cc(Cl)c3)(C(F)(F)F)C2)cc1Cl (stereo not shown) [1-062] | ≥ 80% |  | 
CCCC(=O)NCc1ccc(C2=NOC(c3cc(Cl)cc(Cl)c3)(C(F)(F)F)C2)cc1Cl (stereo not shown) [1-063] |  | ≥ 80% | 
CC(C)CC(=O)NCc1ccc(C2=NOC(c3cc(Cl)cc(Cl)c3)(C(F)(F)F)C2)cc1Cl (stereo not shown) [1-064] |  | ≥ 80% | 
CCC(C)C(=O)NCc1ccc(C2=NOC(c3cc(Cl)cc(Cl)c3)(C(F)(F)F)C2)cc1Cl (stereo not shown) [1-065] |  | ≥ 80% | 
O=C(NCc1ccc(C2=NOC(c3cc(Cl)cc(Cl)c3)(C(F)(F)F)C2)cc1Cl)C1CCC1 (stereo not shown) [1-066] |  |  | insecticidal rate (rate of dead insects) (500 ppm): ≥ 80%
O=C(NCc1ccc(C2=NOC(c3cc(Cl)cc(Cl)c3)(C(F)(F)F)C2)cc1Cl)C1CCCC1 (stereo not shown) [1-067] |  |  | insecticidal rate (rate of dead insects) (500 ppm): ≥ 80%
O=C(NCc1ccc(C2=NOC(c3cc(Cl)cc(Cl)c3)(C(F)(F)F)C2)cc1Cl)C(F)(F)F (stereo not shown) [1-068] |  | ≥ 80% | 
O=C(CCCl)NCc1ccc(C2=NOC(c3cc(Cl)cc(Cl)c3)(C(F)(F)F)C2)cc1Cl (stereo not shown) [1-069] |  | ≥ 80% | 
O=C(CCBr)NCc1ccc(C2=NOC(c3cc(Cl)cc(Cl)c3)(C(F)(F)F)C2)cc1Cl (stereo not shown) [1-070] |  |  | insecticidal rate (rate of dead insects) (500 ppm): ≥ 80%
CC(Cl)C(=O)NCc1ccc(C2=NOC(c3cc(Cl)cc(Cl)c3)(C(F)(F)F)C2)cc1Cl (stereo not shown) [1-071] |  |  | insecticidal rate (rate of dead insects) (500 ppm): ≥ 80%
O=C(NCc1ccc(C2=NOC(c3cc(Cl)cc(Cl)c3)(C(F)(F)F)C2)cc1Cl)C(F)(F)C(F)F (stereo not shown) [1-072] |  | ≥ 80% | 
O=C(NCc1ccc(C2=NOC(c3cc(Cl)cc(Cl)c3)(C(F)(F)F)C2)cc1Cl)C(F)(F)C(F)(F)F (stereo not shown) [1-073] |  |  | insecticidal rate (rate of dead insects) (500 ppm): ≥ 80%
CSCCC(=O)NCc1ccc(C2=NOC(c3cc(Cl)cc(Cl)c3)(C(F)(F)F)C2)cc1Cl (stereo not shown) [1-075] |  |  | insecticidal rate (rate of dead insects) (500 ppm): ≥ 80%
CCC(=O)NCc1ccc(C2=NOC(c3cc(Cl)cc(Cl)c3)(C(F)(F)F)C2)cc1-c1ccc(N(C)C)cc1 (stereo not shown) [1-116] | ≥ 80% |  | 
O=C(CC(F)(F)F)NCc1ccc(C2=NOC(c3cc(Cl)cc(Cl)c3)(C(F)(F)F)C2)cc1Cl (stereo not shown) [2-032] | ≥ 80% |  | 
O=C(NCc1ccc(C2=NOC(c3cc(Cl)cc(Cl)c3)(C(F)(F)F)C2)cc1Cl)C1CCCO1 (stereo not shown) [2-033] | ≥ 80% |  | 
O=C(NCc1ccc(C2=NOC(c3cc(Cl)cc(Cl)c3)(C(F)(F)F)C2)cc1Cl)C1CCOC1 (stereo not shown) [2-034] |  | ≥ 80% | 
N#CCC(=O)NCc1ccc(C2=NOC(c3cc(Cl)cc(Cl)c3)(C(F)(F)F)C2)cc1Cl (stereo not shown) [2-035] |  | ≥ 80% | 
O=C(NCc1ccc(C2=NOC(c3cc(Cl)cc(Cl)c3)(C(F)(F)F)C2)cc1Cl)c1cccc(F)c1 (stereo not shown) [2-036] |  | ≥ 80% | 

Compound | insecticidal rate (rate of dead insects) (100 ppm (*)) | insecticidal rate (rate of dead insects) (10 ppm (**)) | further results
O=C(NCc1ccc(C2=NOC(c3cc(Cl)cc(Cl)c3)(C(F)(F)F)C2)cc1Cl)c1ccc(F)cc1 (stereo not shown) [2-037] |  | ≥ 80% | 
O=C(NCc1ccc(C2=NOC(c3cc(Cl)cc(Cl)c3)(C(F)(F)F)C2)cc1Cl)c1cc(F)cc(F)c1 (stereo not shown) [2-038] |  | ≥ 80% | 
O=C(NCc1ccc(C2=NOC(c3cc(Cl)cc(Cl)c3)(C(F)(F)F)C2)cc1Cl)c1c(Cl)cccc1Cl (stereo not shown) [2-039] |  |  | insecticidal rate (rate of dead insects) (500 ppm): ≥ 80%
O=C(NCc1ccc(C2=NOC(c3cc(Cl)cc(Cl)c3)(C(F)(F)F)C2)cc1Cl)n1ccnc1 (stereo not shown) [2-040] |  |  | insecticidal rate (rate of dead insects) (500 ppm): ≥ 80%
CC(NC(=O)C1CC1)c1ccc(C2=NOC(c3cc(Cl)cc(Cl)c3)(C(F)(F)F)C2)cc1Cl (stereo not shown) [2-041] |  | ≥ 80% | 
N#CC(NC(=O)C1CC1)c1ccc(C2=NOC(c3cc(Cl)cc(Cl)c3)(C(F)(F)F)C2)cc1Cl (stereo not shown) [2-042] |  | ≥ 80% | 
CC(C)C(=O)NCc1ccc(C2=NOC(c3cc(Cl)cc(Cl)c3)(C(F)(F)F)C2)cc1Br (stereo not shown) [2-043] | ≥ 80% |  | 
O=C(NCc1ccc(C2=NOC(c3cc(Cl)cc(Cl)c3)(C(F)(F)F)C2)cc1Br)C1CC1 (stereo not shown) [2-044] | ≥ 80% |  | 
O=C(CC(F)(F)F)NCc1ccc(C2=NOC(c3cc(Cl)cc(Cl)c3)(C(F)(F)F)C2)cc1Br (stereo not shown) [2-045] | ≥ 80% |  | 
CCC(=O)NCc1ccc(C2=NOC(c3cc(Cl)cc(Cl)c3)(C(F)(F)F)C2)cc1I (stereo not shown) [2-046] | ≥ 80% |  | 
O=C(CC(F)(F)F)NCc1ccc(C2=NOC(c3cc(Cl)cc(Cl)c3)(C(F)(F)F)C2)cc1I (stereo not shown) [2-051] | ≥ 80% |  | 
CSCCC(=O)NCc1ccc(C2=NOC(c3cc(Cl)cc(Cl)c3)(C(F)(F)F)C2)cc1I (stereo not shown) [2-052] |  |  | insecticidal rate (rate of dead insects) (500 ppm): ≥ 80%
CCC(=O)NCc1ccc(C2=NOC(c3cc(Cl)cc(Cl)c3)(C(F)(F)F)C2)cc1C (stereo not shown) [2-053] | ≥ 80% |  | 
Cc1cc(C2=NOC(c3cc(Cl)cc(Cl)c3)(C(F)(F)F)C2)ccc1CNC(=O)CC(F)(F)F (stereo not shown) [2-054] | ≥ 80% |  | 
Cc1cc(C2=NOC(c3cc(Cl)cc(Cl)c3)(C(F)(F)F)C2)ccc1CNC(=O)Cc1ccccn1 (stereo not shown) [2-055] | ≥ 80% |  | 
Nc1cc(C2=NOC(c3cc(Cl)cc(Cl)c3)(C(F)(F)F)C2)ccc1CNC(=O)CC(F)(F)F (stereo not shown) [2-056] |  |  | insecticidal rate (rate of dead insects) (500 ppm): ≥ 80%
O=C(CC(F)(F)F)NCc1ccc(C2=NOC(c3cc(Cl)cc(Cl)c3)(C(F)(F)F)C2)cc1[N+](=O)[O-] (stereo not shown) [2-057] | ≥ 80% |  | 
CCC(=O)NCc1ccc(C2=NOC(c3cc(Cl)cc(Cl)c3)(C(F)(F)F)C2)cc1-c1ccccc1F (stereo not shown) [2-058] |  |  | insecticidal rate (rate of dead insects) (500 ppm): ≥ 80%
O=C(NCc1ccc(C2=NOC(c3cc(Cl)c(Cl)c(Cl)c3)(C(F)(F)F)C2)cc1Cl)C1CC1 (stereo not shown) [2-059] | ≥ 80% |  | 
O=C(NC(c1ccccc1)c1ccc(C2=NOC(c3cc(Cl)cc(Cl)c3)(C(F)(F)F)C2)cc1)C1CC1 (stereo not shown) [2-060] | ≥ 80% |  | 
O=C(CC1CC1)NCc1ccc(C2=NOC(c3cc(Cl)cc(Cl)c3)(C(F)(F)F)C2)cc1Cl (stereo not shown) [2-061] |  | ≥ 80% | 
CC(CC(=O)NCc1ccc(C2=NOC(c3cc(Cl)cc(Cl)c3)(C(F)(F)F)C2)cc1Cl)C(F)(F)F (stereo not shown) [2-062] | ≥ 80% |  | 
N#Cc1ccc(C(=O)NCc2ccc(C3=NOC(c4cc(Cl)cc(Cl)c4)(C(F)(F)F)C3)cc2Cl)cc1 (stereo not shown) [2-093] |  | ≥ 80% | 

Compound | insecticidal rate (rate of dead insects) (100 ppm (*)) | insecticidal rate (rate of dead insects) (10 ppm (**)) | further results
O=C(NCc1ccc(C2=NOC(c3cc(Cl)cc(Cl)c3)(C(F)(F)F)C2)cc1Cl)c1ccccc1C(=O)NC1CC1 (stereo not shown) [2-094] |  |  | insecticidal rate (rate of dead insects) (500 ppm): ≥ 80%
O=C(CC1CC1)NCc1ccc(C2=NOC(c3cc(Cl)cc(Cl)c3)(C(F)(F)F)C2)cc1Br (stereo not shown) [2-095] |  | ≥ 80% | 
O=C(NCc1ccc(C2=NOC(c3cc(Cl)cc(Cl)c3)(C(F)(F)F)C2)cc1Br)C1CCCO1 (stereo not shown) [2-096] | ≥ 80% |  | 
O=C(NCc1ccc(C2=NOC(c3cc(Cl)cc(Cl)c3)(C(F)(F)F)C2)cc1Br)C1CCOC1 (stereo not shown) [2-097] |  | ≥ 80% | 
O=C(NCc1ccc(C2=NOC(c3cc(Cl)cc(Cl)c3)(C(F)(F)F)C2)cc1Br)c1ccc(F)cc1F (stereo not shown) [2-098] | ≥ 80% |  | 
Cc1cc(C2=NOC(c3cc(Cl)cc(Cl)c3)(C(F)(F)F)C2)ccc1CNC(=O)C1CC1 (stereo not shown) [2-099] | ≥ 80% |  | 
O=C(NCc1ccc(C2=NOC(c3cc(Cl)cc(Cl)c3)(C(F)(F)F)C2)cc1[N+](=O)[O-])C1CC1 (stereo not shown) [2-100] | ≥ 80% |  | 
CC(=O)Nc1cc(C2=NOC(c3cc(Cl)cc(Cl)c3)(C(F)(F)F)C2)ccc1CNC(=O)CC(F)(F)F (stereo not shown) [2-101] |  |  | insecticidal rate (rate of dead insects) (500 ppm): ≥ 80%
COC(C)=Nc1cc(C2=NOC(c3cc(Cl)cc(Cl)c3)(C(F)(F)F)C2)ccc1CNC(=O)CC(F)(F)F (stereo not shown) [2-102] |  |  | insecticidal rate (rate of dead insects) (500 ppm): ≥ 80%
O=CNCc1ccc(C2=NOC(c3cc(Cl)c(Cl)c(Cl)c3)(C(F)(F)F)C2)cc1Cl (stereo not shown) [2-103] |  | ≥ 80% | 
CCC(=O)NCc1ccc(C2=NOC(c3cc(C(F)(F)F)cc(C(F)(F)F)c3)(C(F)(F)F)C2)cc1Cl (stereo not shown) [2-104] |  | ≥ 80% | 
CCC(=O)NCc1ccc(C2=NOC(c3cc(Cl)c(Cl)c(Cl)c3)(C(F)(F)F)C2)cc1Cl (stereo not shown) [2-105] |  | ≥ 80% | 
CCC(=O)NCc1ccc(C2=NOC(c3cc(Cl)cc(Cl)c3)(C(F)(F)F)C2)cc1Br (stereo not shown) [2-106] |  | ≥ 80% | 
CCC(=O)NCc1ccc(C2=NOC(c3cc(Cl)c(Cl)c(Cl)c3)(C(F)(F)F)C2)cc1Br (stereo not shown) [2-107] |  | ≥ 80% | 
CCC(=O)NCc1ccc(C2=NOC(c3cc(Cl)c(Cl)c(Cl)c3)(C(F)(F)F)C2)cc1[N+](=O)[O-] (stereo not shown) [2-108] |  | ≥ 80% | 
CCC(=O)NC(C)c1ccc(C2=NOC(c3cc(Cl)c(Cl)c(Cl)c3)(C(F)(F)F)C2)cc1 (stereo not shown) [2-109] |  | ≥ 80% | 
CCCC(=O)NCc1ccc(C2=NOC(c3cc(C(F)(F)F)cc(C(F)(F)F)c3)(C(F)(F)F)C2)cc1Cl (stereo not shown) [2-110] |  | ≥ 80% | 
CCCC(=O)NCc1ccc(C2=NOC(c3cc(Cl)c(Cl)c(Cl)c3)(C(F)(F)F)C2)cc1Cl (stereo not shown) [2-111] |  | ≥ 80% | 
CCCC(=O)NCc1ccc(C2=NOC(c3cc(Cl)c(Cl)c(Cl)c3)(C(F)(F)F)C2)cc1Br (stereo not shown) [2-112] |  | ≥ 80% | 
CCCC(=O)NCc1ccc(C2=NOC(c3cc(Cl)c(Cl)c(Cl)c3)(C(F)(F)F)C2)cc1[N+](=O)[O-] (stereo not shown) [2-113] |  | ≥ 80% | 
CCCC(=O)NC(C)c1ccc(C2=NOC(c3cc(Cl)c(Cl)c(Cl)c3)(C(F)(F)F)C2)cc1 (stereo not shown) [2-114] |  | ≥ 80% | 
